For this assay, the target named is His-tagged GlnZ (A. brasilense) (UniProt P70731). Nature of the assay: pull-down; 20 μg purified His-GlnZ immobilised on magnetic Ni2+ beads (MagneHis), mixed with E. coli cell extract overexpressing the recombinant protein (100 μl in Fig. S1); 50 mM Tris-HCl pH 8, 0.1 M NaCl, 10% glycerol, 20 mM imidazole, 5 mM MgCl2, with 1 mM ADP, 1 mM ATP or 1 mM ATP + 1.5 mM 2-OG; SDS-PAGE, Coomassie; 2-OG reduced copurification; only the target purified.

By UniProt entry, the sequences of proteins in these tests, tags left out. Where a name states a change or a piece, a line headed by the entry shows the natural chain unless it says otherwise.
UniProt P70731: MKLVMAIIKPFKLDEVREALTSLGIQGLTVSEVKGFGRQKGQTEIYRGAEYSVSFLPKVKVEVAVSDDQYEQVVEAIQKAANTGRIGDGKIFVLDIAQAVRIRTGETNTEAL
UniProt A0A0N7I7C7: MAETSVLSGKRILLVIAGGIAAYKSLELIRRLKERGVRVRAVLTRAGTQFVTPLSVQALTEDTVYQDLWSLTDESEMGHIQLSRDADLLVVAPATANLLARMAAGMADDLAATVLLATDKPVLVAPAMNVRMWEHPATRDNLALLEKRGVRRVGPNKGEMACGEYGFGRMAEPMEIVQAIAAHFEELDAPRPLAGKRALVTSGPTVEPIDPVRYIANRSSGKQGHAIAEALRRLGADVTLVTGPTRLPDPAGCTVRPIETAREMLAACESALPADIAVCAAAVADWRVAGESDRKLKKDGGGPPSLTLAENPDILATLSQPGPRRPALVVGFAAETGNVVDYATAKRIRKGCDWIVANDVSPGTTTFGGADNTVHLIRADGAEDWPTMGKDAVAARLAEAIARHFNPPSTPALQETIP

No constants are given. Whether binding was seen depends on the method and setting. Binding seen in cells or lysates may run through a third protein. Binding calls can cover weak binding; strength is not graded here.

Turning to “CoaBC (G8AF97), recombinant (from UniProt A0A0N7I7C7) (enzyme)”, the binding entry is listed as “binds weakly”.

The values above are taken from PMC7646526.
